# Primary screen of a compound library

Chains of the proteins cited; added tags and fusions are not shown.
UniProt P9WFT3, whole entry: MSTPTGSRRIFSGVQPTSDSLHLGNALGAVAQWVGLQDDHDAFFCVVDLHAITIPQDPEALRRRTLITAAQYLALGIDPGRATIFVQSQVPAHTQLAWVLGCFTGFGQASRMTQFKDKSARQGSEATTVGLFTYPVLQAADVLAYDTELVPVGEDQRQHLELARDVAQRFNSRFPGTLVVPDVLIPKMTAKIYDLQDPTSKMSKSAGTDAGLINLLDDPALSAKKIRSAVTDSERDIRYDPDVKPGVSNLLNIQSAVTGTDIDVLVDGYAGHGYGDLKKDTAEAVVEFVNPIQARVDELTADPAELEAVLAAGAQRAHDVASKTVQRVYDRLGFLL

Measurements from “University of Dundee, Small-Polar-MMV Screening Library” (2021), ChEMBL document CHEMBL3988442.

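Tryptophan-tRNA ligase, Mycobacterium tuberculosis (UniProt P9WFT3). Enzyme assay of tryptophanyl-tRNA synthetase; the read-out is not stated. Concentration: 10 µM. Direction is not recorded; retested compounds ran higher, which suggests that high means inhibition. About 65,000 compounds were tested under these conditions; 0.098% (about 64) showed 50% or more at least once.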

Results are given as percent effect. The record does not define 0% and 100%; most values in the screen are far below 50% and negative numbers occur (in some assays of this library far below -100). This is an unselected part of the compounds tested.

With COCCn1cnnc1CNc1cc(C)nc2c(C)c(C)nn12 the screen gave -2.527%. O=C(c1csc(-c2cccs2)n1)N1CCN2CCCCC2C1 (stereo not shown) read -1.687%. Result for N#Cc1ncn(Cc2c(F)cccc2Cl)n1 was -2.98%. Result for COc1c(CNCc2ccccc2CN2CCOCC2)c(C)nn1C was 1.064%. With COCC1CN(C(=O)c2ccnnc2)Cc2ncnn2C1 (stereo not shown) the screen gave -5.221%. With Cc1ccc(CN2CCC3(CCC3NS(=O)(=O)c3ccccc3)CC2)o1 (stereo not shown) the screen gave -0.3236%. Cc1cnc2n(c1=O)C(CC(=O)NCc1cc(-c3cccs3)on1)CS2 (stereo not shown) gave 28.34%.

Result for Cc1cc(C)c2c(c1)C(CC(=O)O)C(=O)N2 (stereo not shown) was 6.606%. Result for OC(CN1CCN(Cc2ccc(F)c(F)c2)CC1)C1CC1 (stereo not shown) was 2.495%. With CCn1cc(NC(=O)NCC(c2cccc(F)c2)N(C)C)cn1 (stereo not shown) the screen gave -0.4717%. O=c1cc2c(nn1CN1CCSCC1)CCC2 gave -0.1961%. For COc1cccc2c1OCC(CNC(=O)Cc1c(C)nc(N)nc1C)C2 (stereo not shown) the result was -4.333%. For CC(C)N1CCCC2(CCN(Cc3nncn3C(C)C)C2)C1=O (stereo not shown) the result was 1.237%. For CS(=O)(=O)c1cn[nH]c1C1CCCCN1C(=O)c1cncs1 (stereo not shown) the result was 3.072%.

Cc1nccn1CCCN1CCC(c2nccn2CC2CCC2)CC1 read -2.271%. With CC(C)NC(=O)CN(C)C1CCN(c2ccc(Cl)cn2)CC1 the screen gave -3.306%. Result for OC1(CN2CCC(Oc3cccc(C(F)(F)F)c3)CC2)CNCCOC1 (stereo not shown) was -7.74%. O=S1(=O)CCC(n2nc(Cc3cccs3)nc2-c2cnccn2)C1 (stereo not shown) gave -1.377%. For COc1ccc2c(ccn2CCC(=O)NCCC(=O)O)c1 the result was 4.199%. With CC(=O)c1cnc(NCCCN2CCOCC2)nc1C the screen gave -1.211%. With O=C1OCCC1N1CCN(C(=O)Cc2c[nH]c3ccccc23)CC1 (stereo not shown) the screen gave 2.269%.

Result for CC(CS(C)(=O)=O)NC(=O)N1CC2(CCCC2)c2ccccc21 (stereo not shown) was -3.818%. With CCOCc1nc(N2CCOCC2)sc1C(=O)NCc1ccco1 the screen gave 0.3393%. NC(=O)c1ccc(C(=O)N2CCCCC2Cn2cccn2)s1 (stereo not shown) gave 23.7%. COCCN1CC[C@H]2OCC[C@@H](C(=O)Nc3cccnc3)[C@@H]2C1 gave -1.521%. For CCn1ncc2c(C(F)F)cc(-c3ccn(C)n3)nc21 the result was 3.368%. For CCC(C)N(Cc1cccnc1)C(=O)c1ccc(F)c(O)c1 (stereo not shown) the result was 0.3079%. Result for Cn1cc(CN2CC3(CCN(C(=O)c4ccoc4)C3)C2)cn1 was -1.562%.

With COCc1nc2cc(NCc3ccc(CO)o3)ccc2o1 the screen gave 1.652%. With CNC(=O)CNC(=O)CC1C(=O)NCCN1Cc1ccccc1C (stereo not shown) the screen gave 3.186%. Oc1cccc(C2CN(c3nnc(C4CC4)s3)CCO2)c1 (stereo not shown) read -7.534%. CCc1nc(CN2CCOC(CN(CC)c3cccnn3)C2)cs1 (stereo not shown) read 3.336%. Result for Cc1nc(N2CCCC2C(=O)NC(C)(C)CO)nc2ccccc12 (stereo not shown) was -4.159%. COC(=O)c1ccc(Cl)c(CN(C)Cc2ncnn2C)c1 read -4.46%. With COCCN1C[C@H]2CC[C@@H]1CN(Cc1cc(=O)c3cc(C)ccc3[nH]1)C2 the screen gave 3.936%.

For Cc1noc(Cl)c1CCC(=O)N1CCc2sccc2C1 the result was -1.267%. CN1CCC(N(Cc2ccccc2)C(=O)c2nccn3ccnc23)CC1 gave -3.786%. With CCc1c(NCc2cccnc2)cnn1CC(C)C the screen gave -7.143%.

Once more, the final 4:

{"compound": "COCCN1C[C@H]2CC[C@@H]1CN(Cc1cc(=O)c3cc(C)ccc3[nH]1)C2", "effect": 3.936}
{"compound": "Cc1noc(Cl)c1CCC(=O)N1CCc2sccc2C1", "effect": -1.267}
{"compound": "CN1CCC(N(Cc2ccccc2)C(=O)c2nccn3ccnc23)CC1", "effect": -3.786}
{"compound": "CCc1c(NCc2cccnc2)cnn1CC(C)C", "effect": -7.143}